Measurements reported in paper doi:10.1101/2022.02.23.481653.
These are yes or no findings as the source states them, for the method shown. Some results given as binding are weak or reduced against the parent protein; the word gives no strength. For some of these results: Where a sequence is shown, tags or fusion partners need not be part of it.

Sequences of proteins named here, by UniProt entry; tags and fusion partners are left off. A change or cut given only in a name is not applied to a line headed by its entry. A line that says so, or that is headed by a name, gives the form on record, which may keep a tag or linker.
SEPT9_i3NCmut-msfGFP (Q9UHD8-2, form named): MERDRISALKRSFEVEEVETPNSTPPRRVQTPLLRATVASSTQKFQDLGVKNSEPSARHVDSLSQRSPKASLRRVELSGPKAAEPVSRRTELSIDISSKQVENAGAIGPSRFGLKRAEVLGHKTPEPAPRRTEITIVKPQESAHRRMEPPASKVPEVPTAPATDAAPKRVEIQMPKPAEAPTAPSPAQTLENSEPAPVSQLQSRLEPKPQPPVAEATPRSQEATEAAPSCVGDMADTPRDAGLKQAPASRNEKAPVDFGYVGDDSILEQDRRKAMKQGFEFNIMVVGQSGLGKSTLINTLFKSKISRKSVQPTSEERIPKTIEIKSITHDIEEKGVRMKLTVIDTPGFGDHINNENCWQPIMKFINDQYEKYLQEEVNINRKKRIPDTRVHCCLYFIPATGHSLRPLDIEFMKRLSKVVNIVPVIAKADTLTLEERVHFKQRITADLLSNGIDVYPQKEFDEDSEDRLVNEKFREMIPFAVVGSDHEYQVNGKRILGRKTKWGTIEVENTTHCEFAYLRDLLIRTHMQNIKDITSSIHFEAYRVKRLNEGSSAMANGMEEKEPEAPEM

Legend:
[1] = target: SEPT9_i3NCmut-msfGFP (human) (UniProt Q9UHD8); test: native gel or EMSA
[2] = target: T1, recombinant human septin hexamers with wild-type SEPT2-msfGFP (SEPT2-SEPT6-SEPT7-SEPT7-SEPT6-SEPT2) (human) (UniProt Q15019); test: fluorescence microscopy of reconstituted septin filaments
T1 sequence 1: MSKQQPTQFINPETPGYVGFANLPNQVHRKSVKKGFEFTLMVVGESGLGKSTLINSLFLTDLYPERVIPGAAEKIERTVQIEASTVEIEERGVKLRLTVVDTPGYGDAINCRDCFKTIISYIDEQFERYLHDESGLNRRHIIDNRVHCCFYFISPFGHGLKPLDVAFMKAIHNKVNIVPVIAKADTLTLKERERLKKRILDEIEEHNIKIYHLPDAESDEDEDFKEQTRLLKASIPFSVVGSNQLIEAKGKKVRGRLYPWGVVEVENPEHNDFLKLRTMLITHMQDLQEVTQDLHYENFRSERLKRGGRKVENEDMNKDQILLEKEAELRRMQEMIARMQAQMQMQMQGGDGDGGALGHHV
T1 sequence 2: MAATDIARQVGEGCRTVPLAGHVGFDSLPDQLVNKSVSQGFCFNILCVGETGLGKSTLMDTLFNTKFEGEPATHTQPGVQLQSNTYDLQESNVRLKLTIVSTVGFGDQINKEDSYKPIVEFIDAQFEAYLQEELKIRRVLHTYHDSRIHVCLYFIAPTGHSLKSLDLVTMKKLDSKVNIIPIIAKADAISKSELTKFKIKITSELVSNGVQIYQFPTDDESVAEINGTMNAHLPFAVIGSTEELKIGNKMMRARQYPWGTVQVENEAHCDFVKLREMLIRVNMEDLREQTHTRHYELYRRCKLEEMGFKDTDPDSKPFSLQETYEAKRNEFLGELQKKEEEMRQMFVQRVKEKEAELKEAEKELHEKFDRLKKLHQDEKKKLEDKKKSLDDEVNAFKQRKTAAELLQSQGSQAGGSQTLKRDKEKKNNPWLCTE
T1 sequence 3: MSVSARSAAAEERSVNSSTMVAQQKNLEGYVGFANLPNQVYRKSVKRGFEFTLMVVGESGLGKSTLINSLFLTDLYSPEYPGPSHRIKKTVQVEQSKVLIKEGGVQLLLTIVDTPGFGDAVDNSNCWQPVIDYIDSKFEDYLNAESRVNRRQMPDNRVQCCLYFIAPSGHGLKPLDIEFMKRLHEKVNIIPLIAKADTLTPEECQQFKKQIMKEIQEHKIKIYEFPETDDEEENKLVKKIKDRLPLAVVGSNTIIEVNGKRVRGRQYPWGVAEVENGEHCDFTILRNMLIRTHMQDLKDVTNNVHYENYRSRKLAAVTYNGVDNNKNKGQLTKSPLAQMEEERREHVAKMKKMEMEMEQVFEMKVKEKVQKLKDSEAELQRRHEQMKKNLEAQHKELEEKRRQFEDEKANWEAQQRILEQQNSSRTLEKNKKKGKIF

[3] = target: recombinant human septin octamers-9_i3 with SEPT2NCmut-msfGFP (SEPT2 F20D, V27D) (human) (UniProt Q15019); test: as above
[4] = target: recombinant human septin octamers-9_i3 with wild-type SEPT2-msfGFP (SEPT2-SEPT6-SEPT7-SEPT9-SEPT9-SEPT7-SEPT6-SEPT2) (human) (UniProt Q15019); test: as above

Substance: SEPT9_i3NCmut-msfGFP (from UniProt Q9UHD8-2 1-568)
- binding [1]: no binding

Substance: recombinant human septin octamers-9_i3 with SEPT2-sfCherry2 (from UniProt Q15019;Q14141;Q16181;Q9UHD8-2) (complex)
- binding [2]: binds

Substance: recombinant human septin octamers-9_i3 with SEPT2NCmut-msfGFP (SEPT2 F20D, V27D) (from UniProt Q15019;Q14141;Q16181;Q9UHD8-2) (complex)
- binding [3]: no binding

Substance: recombinant human septin octamers-9_i3 with wild-type SEPT2-msfGFP (SEPT2-SEPT6-SEPT7-SEPT9-SEPT9-SEPT7-SEPT6-SEPT2) (from UniProt Q15019;Q14141;Q16181;Q9UHD8-2) (complex)
- binding [4]: binds
